# Source: PubChem BioAssay AID504774 (Drosophila RNAi Screening Center, 2011)
# Assay: 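Fly genes whose loss alters survival after alkylation damage to DNA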 (primary screen)
# System: Drosophila Kc167 cells
# Reagents: long dsRNA against Drosophila genes, about 0.25 µg dsRNA per well
# Time to read-out: about 6 days: 3 days knock-down, then 3 days with or without MMS
# Challenge: methyl methanesulphonate 0.004% (w/v) for 3 days after knock-down
# Detection: 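ATP-dependent luminescence as a measure of live cells in MMS-exposed wells, quantile normalised within each plate, with replicate values also given as a mean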
# Direction: mean viability with MMS and viability with MMS: higher = more surviving cells after MMS
# In all, the deposit lists about 23,000 reagents; below is an unselected part of those that have a named target and a result. 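Values are quantile-normalised luminescence on an arbitrary scale; higher means more cells surviving MMS.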 Names joined by + are all predicted targets of the reagent. Not all columns of the deposit are shown.
Gene,dsRNA,mean viability with MMS,"viability with MMS, replicate 1"
ste24a,DRSC07314,3.36e6,3.84e6
Lcp65Ae,DRSC11212,3.66e6,4.05e6
CG15888,DRSC15125,3.56e6,4.01e6
CG3880,DRSC04428,3.54e6,4.06e6
CG3880,DRSC21404,3.51e6,4.05e6
CG31515,DRSC13610,3.24e6,3.73e6
Mgat1,DRSC07463,3.41e6,3.86e6
CG1545,DRSC21532,3.53e6,4.05e6
mof,DRSC18795,3.80e6,4.51e6
Npc2c,DRSC15523,3.56e6,4.05e6
kar,DRSC14496,3.64e6,4.17e6
CG9986,DRSC16586,3.55e6,4.03e6
CG42329,DRSC00373,3.56e6,4.10e6
CG42329,DRSC00682,3.57e6,4.12e6
gzl,DRSC12517,3.52e6,3.95e6
Jhbp15,DRSC15217,3.51e6,3.94e6
CG32073,DRSC09087,3.38e6,3.82e6
CG32073,DRSC09894,3.76e6,4.11e6
Gcna,DRSC18553,3.74e6,4.32e6
CR9337,DRSC03212,3.41e6,3.78e6
CG13482,DRSC10024,3.79e6,4.29e6
Lrpprc2,DRSC18605,3.49e6,4.04e6
CG30259,DRSC04164,3.62e6,4.04e6
CG30259,DRSC04165,3.80e6,4.05e6
CG6656,DRSC16085,3.46e6,3.97e6
Gcat,DRSC09719,3.73e6,4.28e6
Septin2,DRSC16855,3.57e6,3.93e6
Sod3,DRSC07324,3.74e6,4.26e6
GC2,DRSC14476,3.44e6,3.93e6
Tsp66E,DRSC09683,3.53e6,3.94e6
CG32181,DRSC22635,3.66e6,4.11e6
CG11147,DRSC02129,3.38e6,3.84e6
Ptp69D,DRSC11258,3.68e6,4.26e6
Or10a,DRSC20264,3.56e6,4.09e6
agt,DRSC12611,3.61e6,4.14e6
Mvl,DRSC16752,3.46e6,3.93e6
CG3631,DRSC15503,3.49e6,3.87e6
Gyc76C + CG42637,DRSC11180,3.65e6,4.16e6
ACOX1,DRSC05941,3.50e6,3.99e6
AstA-R2,DRSC14171,3.59e6,4.12e6
CG8541,DRSC10989,3.52e6,3.94e6
dysf,DRSC14529,3.50e6,3.91e6
dysf,DRSC14895,3.65e6,4.20e6
dysf,DRSC14896,3.53e6,3.95e6
dysf,DRSC14897,2.93e6,3.60e6

Quoted from the entries so far (5 entries):
Gene,dsRNA,mean viability with MMS,"viability with MMS, replicate 1"
Sod3,DRSC07324,3.74e6,4.26e6
GC2,DRSC14476,3.44e6,3.93e6
Tsp66E,DRSC09683,3.53e6,3.94e6
CG32181,DRSC22635,3.66e6,4.11e6
CG11147,DRSC02129,3.38e6,3.84e6

The results go on.
Gene,dsRNA,mean viability with MMS,"viability with MMS, replicate 1"
COX5B,DRSC02115,3.36e6,3.64e6
stumps,DRSC13045,3.68e6,4.09e6
stumps,DRSC15332,3.35e6,3.82e6
stumps,DRSC17073,3.54e6,3.99e6
CG12716,DRSC19493,3.65e6,4.08e6
Crk,DRSC17163,3.56e6,4.10e6
PH4alphaMP,DRSC17031,3.59e6,4.10e6
CG15393 (retired record),DRSC00407,3.48e6,3.98e6
LysD + LysC (retired record),DRSC08674,3.78e6,4.24e6
LysD + LysC (retired record),DRSC22743,3.69e6,4.21e6
Pif1,DRSC00582,3.73e6,4.26e6
Ret,DRSC03409,3.55e6,4.07e6
Ret,DRSC03410,3.48e6,3.98e6
CG13324,DRSC06361,3.42e6,3.96e6
Prp4k,DRSC08144,3.38e6,3.88e6
Las,DRSC11772,3.40e6,3.83e6
VAChT,DRSC13311,3.48e6,3.90e6
VAChT,DRSC16608,3.52e6,4.07e6
CG12519,DRSC10311,3.56e6,4.04e6
CG12519,DRSC21549,3.55e6,4.01e6
na,DRSC19639,3.58e6,4.06e6
eIF4G2,DRSC14207,3.39e6,3.83e6
eIF4G2,DRSC21739,3.29e6,3.80e6
Nipsnap,DRSC20169,3.46e6,4.17e6
CG1371,DRSC06409,3.70e6,4.19e6
CG8500,DRSC16434,3.50e6,3.99e6
CG18324,DRSC06721,3.64e6,4.17e6
Tie,DRSC08104,3.47e6,4.11e6
Tie,DRSC08702,3.41e6,3.87e6
PIG-H,DRSC14856,3.50e6,3.91e6
mlt,DRSC06120,3.67e6,4.13e6
dgo,DRSC06134,3.57e6,3.94e6
RnrS,DRSC07533,2.97e6,3.58e6
Chchd3,DRSC16981,4.13e6,5.04e6
CG3777,DRSC18489,1.90e6,4.07e6
Adat1,DRSC03479,3.50e6,4.00e6
CG14673 (retired record),DRSC12259,3.73e6,4.21e6
dare,DRSC07602,3.50e6,4.05e6
CG13982,DRSC02314,3.48e6,3.99e6
wrapper,DRSC04723,3.61e6,4.29e6
fs(1)M3,DRSC18381,3.59e6,3.85e6
ball,DRSC14145,3.47e6,3.94e6
